Literature values as cited in patent US4246270A, “3-Fluorobenzodiazepines and compositions and uses thereof” (E. I. Du Pont de Nemours and Company, priority 1976, dated 1981).

Conditions: man and other animals; cited from earlier work

CN1C(=O)CN=C(c2ccccc2)c2cc(Cl)ccc21 [Diazepam, reference compound]
metabolism: metabolized in man and other animals by oxidative attack at the 3-position
